For the test, the target named is monkey CD79B on cells (monkey peripheral blood mononuclear cells / monkey B cells) (monkey). Kind of test: FACS on 293F-cynoCD79B cells, antibody at 10 and 1 ug/ml.

This note sets out measurements from patent US20260248946A1 (TUOJIE BIOTECH SHANGHAI, published 2026).

No constants are given. Whether binding was seen depends on the method and setting.

B1: mAb015 (antibody, V domains shown)
VH: QVQLQQSGAELARPGASVKLSCKASGSSFTSYGINWVKQRTGQGLEWIGEIFPRSGNTYYNEKFEGKATLTADKSSSTAYMELRSLTSEDSAVYFCAKGDLGDFDYWGQGTTLTVSS
VL: DFLMTQTPLSLPVRLGDQASISCRSSQSIVHSDGNTYFEWYLQKPGQSPKLLIYKVSNRFSGVPDRFSGSGSGTDFTLKISRVEAEDLGVYYCFQGSHVPWTFGGGTKLEIK
notes: Mouse monoclonal antibody from hybridoma; also called 83B2G2
Regarding B1, the binding result is listed as “no binding (tested: 10ug/ml)”.

B2: mAb017 (antibody, V domains shown)
VH: QVQLQQSGAELARPGASVKLSCKASGYTFTTYGINWVKQRTGQGLEWIGEIYPRSGNIYYNEKFKGKATLTADKSSSTAYMELRSLTSEDSAVYFCARGSDYDGDFAYWGQGTLVTVSA
VL: DVLMTQTPLSLPVSLGDQASISCRSSQSIVHHDGNTYLEWYLQKPGQSPKLLIYKVSNRFSGVPDRFSGSGSGTDFTLKISRVEAEDLGVYYCFQGSHVPWTFGGGTQLEIK
notes: Mouse monoclonal antibody from hybridoma; also called 86F11F6
Take B2: the binding entry is on record as “no binding (tested: 10ug/ml)”.
